Consider five sequences from patent publication US12297293B2 (NANTONG UNIVERSITY, priority 2021, dated 2025).

Data set [1] can be described thus: general procedure: Fmoc solid-phase peptide synthesis; wang resin; N,N-diisopropylethylamine/1-hydroxybenzotriazole/O-benzotriazole-tetramethyluron. To be noted: whole synthesis.
The nature of data set [2]: general procedure: Fmoc solid-phase peptide synthesis; Wang resin; N,N-diisopropylethylamine/1-hydroxybenzotriazole/O-benzotriazole-tetramethyluron. As to conditions: whole synthesis.

Ends that are not written are not given here.

Turning to VYRCMISYG, the “final purity (method not given)” value in data set [1] stood at 98%. The isolated yield in data set [2] was found to be 38%.
As for MISYGGADY, the “final purity (method not given)” value in data set [1] came out at 99%. The isolated yield in data set [2] is 45%.
For the sequence SYGGADYKR, the “final purity (method not given)” value in data set [1] is reported as 97%. This sequence yielded an isolated yield in data set [2] of 40%.
As to YRCMISYGG, in data set [1], the “final purity (method not given)” value came out at 99%. In data set [2], this sequence showed an isolated yield of 35%.
In the same order, the values of YGGADYKRI are 98% and 42%.
